{"source": "PubChem BioAssay AID1259308 (NCATS, 2017)", "purpose": "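Knock-downs that increase output of a recombinant reporter protein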 (primary screen)", "system": "human HEK293 embryonic kidney cells stably expressing firefly luciferase (HEK-CMV-Luc2-Hygro)", "reagent": "single siRNA against human genes, 0.8 pmol siRNA per well", "time to read-out": "72 h", "read-out": "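Reporter luminescence and viable-cell signal on separate replicate plates, given as percent of non-targeting control and median/MAD z-scores, plus per-cell luciferase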", "direction": "total luciferase, z-score: higher = more reporter protein produced", "hit rule": "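Active when the median/MAD z-score for overall luciferase is greater than 3; a gene was taken forward for validation with new siRNAs if at least two of its three siRNAs passed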", "meaning of the calls": "active = raised luciferase; inactive = no rise", "note": "Here is an unselected part of about 59,000 reagents tested. About 1,510 of them (2.6%) were called active. 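Calls use total luciferase alone and ignore viability, so some active siRNAs may act by altering cell number.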 The numbers tell different reagents against one gene apart. Further read-outs or replicates are left out here. No sequences are given here."}
{"gene knocked down": "SRP14 (signal recognition particle 14)", "reagent no.": 1, "total luciferase, z-score": -0.944, "call": "inactive"}
{"gene knocked down": "SRP14 (signal recognition particle 14)", "reagent no.": 2, "total luciferase, z-score": -1.81, "call": "inactive"}
{"gene knocked down": "SRP14 (signal recognition particle 14)", "reagent no.": 3, "total luciferase, z-score": -0.6, "call": "inactive"}
{"gene knocked down": "LINC02297 (long independently transcribed non-coding RNA 2297)", "reagent no.": 1, "total luciferase, z-score": 0.891, "call": "inactive"}
{"gene knocked down": "LINC02297 (long independently transcribed non-coding RNA 2297)", "reagent no.": 2, "total luciferase, z-score": 2.11, "call": "inactive"}
{"gene knocked down": "LINC02297 (long independently transcribed non-coding RNA 2297)", "reagent no.": 3, "total luciferase, z-score": -0.395, "call": "inactive"}
{"gene knocked down": "SPACA4 (sperm acrosome associated 4)", "reagent no.": 1, "total luciferase, z-score": 0.0753, "call": "inactive"}
{"gene knocked down": "SPACA4 (sperm acrosome associated 4)", "reagent no.": 2, "total luciferase, z-score": 0.631, "call": "inactive"}
{"gene knocked down": "SPACA4 (sperm acrosome associated 4)", "reagent no.": 3, "total luciferase, z-score": -0.546, "call": "inactive"}
{"gene knocked down": "TNNI2 (troponin I2, fast skeletal type)", "reagent no.": 1, "total luciferase, z-score": 0.327, "call": "inactive"}
{"gene knocked down": "TNNI2 (troponin I2, fast skeletal type)", "reagent no.": 2, "total luciferase, z-score": 0.758, "call": "inactive"}
{"gene knocked down": "TNNI2 (troponin I2, fast skeletal type)", "reagent no.": 3, "total luciferase, z-score": -1.34, "call": "inactive"}
{"gene knocked down": "CREB3L4 (cAMP responsive element binding protein 3 like 4)", "reagent no.": 1, "total luciferase, z-score": -0.609, "call": "inactive"}
{"gene knocked down": "CREB3L4 (cAMP responsive element binding protein 3 like 4)", "reagent no.": 2, "total luciferase, z-score": 0.878, "call": "inactive"}
{"gene knocked down": "CREB3L4 (cAMP responsive element binding protein 3 like 4)", "reagent no.": 3, "total luciferase, z-score": -1.79, "call": "inactive"}
{"gene knocked down": "WNT7A (Wnt family member 7A)", "reagent no.": 1, "total luciferase, z-score": 2.16, "call": "inactive"}
{"gene knocked down": "WNT7A (Wnt family member 7A)", "reagent no.": 2, "total luciferase, z-score": 0.897, "call": "inactive"}
{"gene knocked down": "WNT7A (Wnt family member 7A)", "reagent no.": 3, "total luciferase, z-score": -0.992, "call": "inactive"}
{"gene knocked down": "PTGES2 (prostaglandin E synthase 2)", "reagent no.": 1, "total luciferase, z-score": 1.04, "call": "inactive"}
{"gene knocked down": "PTGES2 (prostaglandin E synthase 2)", "reagent no.": 2, "total luciferase, z-score": -1.17, "call": "inactive"}
{"gene knocked down": "PTGES2 (prostaglandin E synthase 2)", "reagent no.": 3, "total luciferase, z-score": 1.75, "call": "inactive"}
{"gene knocked down": "PTPRC (protein tyrosine phosphatase receptor type C)", "reagent no.": 1, "total luciferase, z-score": 0.4, "call": "inactive"}
{"gene knocked down": "PTPRC (protein tyrosine phosphatase receptor type C)", "reagent no.": 2, "total luciferase, z-score": 1.05, "call": "inactive"}
{"gene knocked down": "PTPRC (protein tyrosine phosphatase receptor type C)", "reagent no.": 3, "total luciferase, z-score": 1.41, "call": "inactive"}
{"gene knocked down": "IPO8 (importin 8)", "reagent no.": 1, "total luciferase, z-score": -0.347, "call": "inactive"}
{"gene knocked down": "IPO8 (importin 8)", "reagent no.": 2, "total luciferase, z-score": -1.36, "call": "inactive"}
{"gene knocked down": "IPO8 (importin 8)", "reagent no.": 3, "total luciferase, z-score": -0.236, "call": "inactive"}
{"gene knocked down": "PRR18 (proline rich 18)", "reagent no.": 1, "total luciferase, z-score": 3.87, "call": "active"}
{"gene knocked down": "PRR18 (proline rich 18)", "reagent no.": 2, "total luciferase, z-score": -0.688, "call": "inactive"}
{"gene knocked down": "PRR18 (proline rich 18)", "reagent no.": 3, "total luciferase, z-score": -1.15, "call": "inactive"}
{"gene knocked down": "CC2D2B (coiled-coil and C2 domain containing 2B)", "reagent no.": 1, "total luciferase, z-score": 1.24, "call": "inactive"}
{"gene knocked down": "CC2D2B (coiled-coil and C2 domain containing 2B)", "reagent no.": 2, "total luciferase, z-score": 0.513, "call": "inactive"}
{"gene knocked down": "CC2D2B (coiled-coil and C2 domain containing 2B)", "reagent no.": 3, "total luciferase, z-score": 2.08, "call": "inactive"}
